For experiment [1], the target named is T1, Abi5-YFP (UniProt Q9SJN0).
T1 sequence: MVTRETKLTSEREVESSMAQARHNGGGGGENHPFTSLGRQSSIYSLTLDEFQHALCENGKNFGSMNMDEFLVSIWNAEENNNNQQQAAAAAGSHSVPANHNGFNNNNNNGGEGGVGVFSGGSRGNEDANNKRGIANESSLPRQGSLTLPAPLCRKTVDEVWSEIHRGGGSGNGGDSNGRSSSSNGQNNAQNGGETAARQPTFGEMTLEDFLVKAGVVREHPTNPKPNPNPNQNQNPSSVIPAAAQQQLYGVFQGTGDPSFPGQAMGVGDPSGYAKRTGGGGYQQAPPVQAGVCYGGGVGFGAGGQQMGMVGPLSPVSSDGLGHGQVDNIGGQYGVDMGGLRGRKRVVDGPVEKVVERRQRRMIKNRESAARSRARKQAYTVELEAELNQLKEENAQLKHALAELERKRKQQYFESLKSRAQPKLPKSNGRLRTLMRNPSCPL
Briefly: FRET or BRET; sensitised-emission FRET between ECFP (donor) and EYFP/YFP (acceptor) fusion proteins co-expressed in living Arabidopsis thaliana mesophyll protoplasts; confocal laser scanning microscopy, excitation 458 nm and 514 nm. (In BRET a luciferase serves as donor, and the signal depends on an acceptor being close.)

Sequences of proteins named here, by UniProt entry; tags and fusion partners are left off. Residues count along the entry.
UniProt Q04206: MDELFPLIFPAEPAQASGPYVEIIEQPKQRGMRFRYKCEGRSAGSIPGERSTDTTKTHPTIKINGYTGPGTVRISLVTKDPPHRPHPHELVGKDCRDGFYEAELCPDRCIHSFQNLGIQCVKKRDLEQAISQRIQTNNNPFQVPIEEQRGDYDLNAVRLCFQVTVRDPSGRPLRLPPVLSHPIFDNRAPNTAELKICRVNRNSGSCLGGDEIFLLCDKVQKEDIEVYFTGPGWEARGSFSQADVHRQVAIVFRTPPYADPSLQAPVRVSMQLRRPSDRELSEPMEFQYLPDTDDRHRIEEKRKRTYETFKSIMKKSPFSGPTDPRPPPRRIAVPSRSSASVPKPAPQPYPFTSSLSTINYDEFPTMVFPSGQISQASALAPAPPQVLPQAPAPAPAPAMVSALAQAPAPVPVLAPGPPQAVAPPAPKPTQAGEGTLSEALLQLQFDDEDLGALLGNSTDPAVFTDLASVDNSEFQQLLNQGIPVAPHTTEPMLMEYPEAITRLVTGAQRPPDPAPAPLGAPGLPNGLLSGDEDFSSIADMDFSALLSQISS
UniProt P25963: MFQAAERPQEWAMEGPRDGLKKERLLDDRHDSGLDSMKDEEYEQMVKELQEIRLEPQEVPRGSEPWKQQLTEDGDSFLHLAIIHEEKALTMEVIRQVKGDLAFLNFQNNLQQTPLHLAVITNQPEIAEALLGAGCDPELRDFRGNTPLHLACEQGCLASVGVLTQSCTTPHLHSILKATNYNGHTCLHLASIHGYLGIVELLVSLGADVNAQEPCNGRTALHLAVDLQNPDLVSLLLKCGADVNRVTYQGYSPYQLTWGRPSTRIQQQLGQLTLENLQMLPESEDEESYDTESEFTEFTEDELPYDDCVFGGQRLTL
UniProt P19838, residues 1-433: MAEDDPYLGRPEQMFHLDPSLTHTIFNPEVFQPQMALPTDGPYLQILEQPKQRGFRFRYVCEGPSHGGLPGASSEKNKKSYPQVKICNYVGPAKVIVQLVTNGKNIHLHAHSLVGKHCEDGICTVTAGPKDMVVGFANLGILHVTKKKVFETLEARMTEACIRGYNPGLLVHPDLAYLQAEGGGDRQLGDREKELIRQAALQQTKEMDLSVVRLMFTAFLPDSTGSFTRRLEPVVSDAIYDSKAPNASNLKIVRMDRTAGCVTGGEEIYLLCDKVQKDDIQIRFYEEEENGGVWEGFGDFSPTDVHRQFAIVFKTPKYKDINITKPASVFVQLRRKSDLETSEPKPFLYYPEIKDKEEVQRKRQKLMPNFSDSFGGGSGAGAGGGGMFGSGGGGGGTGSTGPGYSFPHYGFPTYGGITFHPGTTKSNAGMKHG

For experiment [2], the target named is RelA-EYFPNt and RelA-EYFPCt (human) (UniProt Q04206). Briefly: split reporter; EYFP-based BiFC (EYFP fragments 1-155 and 156-238) in living Arabidopsis protoplasts; EYFP emission normalised to co-expressed ECFP; controls RelA-EYFPNt/EYFPCt and EYFPNt/RelA-EYFPCt.

These are yes or no findings as the source states them, for the method shown. In cells and extracts the contact can be indirect. Some binding calls cover weakened binding; strength is not graded here. For some of these results: Sequences can lack the tags named with a protein.

Consider IκB-ECFP (from UniProt P25963 1-317), for which the binding entry in experiment [1] is “no binding”.
For the substance p50-ECFP (from UniProt P19838 1-433), in experiment [1], the binding entry was “no binding”.
As for “RelA-EYFPNt and RelA-EYFPCt (from UniProt Q04206 1-551)”, the binding entry in experiment [2] was “binds weakly”.
With RelA-ECFP (from UniProt Q04206 1-551), in experiment [1], the binding entry was “no binding”.

These data come from article PMC3543382, “Elements of Transcriptional Machinery Are Compatible among Plants and Mammals” (PLoS ONE, 2013).
